The values below come from PMC9159632.

By UniProt entry, the sequences of proteins in these tests, tags left out. Where a name states a change or a piece, a line headed by the entry shows the natural chain unless it says otherwise.
UniProt I7MM25: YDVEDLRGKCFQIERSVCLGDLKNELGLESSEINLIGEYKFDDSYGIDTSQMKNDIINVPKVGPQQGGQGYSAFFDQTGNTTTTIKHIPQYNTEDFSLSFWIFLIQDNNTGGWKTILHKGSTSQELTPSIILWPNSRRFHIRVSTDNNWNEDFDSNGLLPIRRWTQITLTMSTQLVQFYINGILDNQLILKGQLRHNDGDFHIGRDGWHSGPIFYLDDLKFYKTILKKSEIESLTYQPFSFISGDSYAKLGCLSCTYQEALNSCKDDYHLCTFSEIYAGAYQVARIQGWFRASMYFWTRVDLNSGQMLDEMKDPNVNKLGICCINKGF
UniProt Q23DF8: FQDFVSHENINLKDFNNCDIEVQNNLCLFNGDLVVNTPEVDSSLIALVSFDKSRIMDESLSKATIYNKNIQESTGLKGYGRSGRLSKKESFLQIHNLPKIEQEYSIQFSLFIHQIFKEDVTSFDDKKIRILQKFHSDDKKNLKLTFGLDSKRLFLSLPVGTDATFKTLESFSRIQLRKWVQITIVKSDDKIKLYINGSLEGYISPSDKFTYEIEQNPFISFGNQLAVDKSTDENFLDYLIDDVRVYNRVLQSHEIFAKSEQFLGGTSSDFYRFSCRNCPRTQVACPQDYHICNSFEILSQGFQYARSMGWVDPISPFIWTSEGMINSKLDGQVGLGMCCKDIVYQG
UniProt W7X454: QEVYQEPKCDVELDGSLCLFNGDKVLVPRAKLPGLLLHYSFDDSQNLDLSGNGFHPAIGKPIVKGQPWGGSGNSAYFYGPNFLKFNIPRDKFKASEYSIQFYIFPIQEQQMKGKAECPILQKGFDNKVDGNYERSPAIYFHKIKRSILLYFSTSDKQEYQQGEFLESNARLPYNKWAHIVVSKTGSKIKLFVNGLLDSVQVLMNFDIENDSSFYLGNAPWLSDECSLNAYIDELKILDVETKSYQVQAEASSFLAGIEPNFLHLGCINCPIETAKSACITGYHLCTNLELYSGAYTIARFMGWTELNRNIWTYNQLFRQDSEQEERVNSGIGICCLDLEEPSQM
UniProt W7XFY1: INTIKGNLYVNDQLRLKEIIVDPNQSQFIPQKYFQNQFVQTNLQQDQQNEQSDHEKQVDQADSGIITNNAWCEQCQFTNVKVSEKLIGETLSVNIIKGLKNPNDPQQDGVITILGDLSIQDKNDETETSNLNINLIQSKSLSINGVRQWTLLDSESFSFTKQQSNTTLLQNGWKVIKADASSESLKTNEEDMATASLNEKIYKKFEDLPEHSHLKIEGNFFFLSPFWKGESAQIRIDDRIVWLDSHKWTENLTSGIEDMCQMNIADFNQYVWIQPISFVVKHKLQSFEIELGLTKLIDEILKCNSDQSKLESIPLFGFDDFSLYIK
UniProt Q24G74: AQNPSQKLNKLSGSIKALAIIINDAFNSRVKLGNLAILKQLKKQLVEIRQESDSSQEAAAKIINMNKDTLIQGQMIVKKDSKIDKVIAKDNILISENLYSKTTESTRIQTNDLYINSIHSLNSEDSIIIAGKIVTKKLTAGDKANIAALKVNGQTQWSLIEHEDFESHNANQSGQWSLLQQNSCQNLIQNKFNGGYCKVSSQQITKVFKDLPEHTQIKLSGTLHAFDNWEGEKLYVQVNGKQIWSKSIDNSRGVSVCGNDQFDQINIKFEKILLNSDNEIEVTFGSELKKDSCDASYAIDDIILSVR

These are yes or no findings as the source states them, for the method shown. In cells and extracts the contact can be indirect. A yes stands for co-enrichment or nearness to the bait. Other partners may have been found.

B1: TTHERM_00141040 (protein, UniProt I7MI22 1-660)
chain: MTTDEAPIKWTGFCIDASAMQSPININGPFSFMSMDLDIIFRQIDSGQSYLQNVNNELVIKGDFGYISQDSTIFSSYEIAFKSPSEHSVGNSQTFFPLEMQVKFVSASQSKLNMAFLFSYGEESDFLNRLGFGRGVLRNLQQNQNFEIPQAFNLQHVLPSKNKFFIYKGSDTMPPCEPTIWLIGYDTLKLTQAQLSDFPTSLSYQGRDTQKKKQEIFINFNIEKEEEKKDEQEQQEDQLEELNSTDQNLHDQYNQQQVNLLNKIKDSFILLGDSTIYDPFVYGHDSEPSAKFIKDTDYIVIQKEKPDLNKMKEQVEIEEIIFEKLRDDQKARQDKIDETNNKQEYVPDKNNEQSQPDKDEKVEKNEEQSQQQSTNSAILVHKKTVKGRQDKKETVKAASDNQTSQKKEEVVEKIKQKNEGPEHYAYNKDGEWDQIPIFSIDSWPQLCQEGKQQSPINIDPQSLMVLEDGEINVYYNQLNQDPWLFNDNIKLTLGGLFGTIEFQEHLYDANFIHFHFPSEHTFGADNKRADIEFQIEHVSLYGQKLIVSILGDLSDTQTNPFLEAMGISGLEFSKFQKIDEKVQLQPRLVSLDILTDSLESFYRYEGSFTHPPCTEGVTWIISRDHVQINKIQLDNLRSLLGLKHNVRGTHDINGREIFVK

The assay has as its target Mdl1p-FLAG (Mucocyst Discharge with a LamG domain protein, FLAG-tagged) (Tetrahymena thermophila) (UniProt I7MM25). The assay is described as follows: affinity purification with mass spectrometry; cryopowders of Mdl1p-FLAG-expressing and WT cells solubilized in 20 mM HEPES, 250 mM NaCl, 0.5% Triton X-100; anti-FLAG beads, 4°C; washes with 500 mM NaCl, 0.1% NP-40; eluted with LDS sample buffer; LC-MS/MS, label-free quantification; duplicates.
In the case of TTHERM_00047330 (from UniProt Q23DF8), the binding result is reported as “binds”. The same measure for TTHERM_000193469 (from UniProt W7X454): “binds”; for TTHERM_000486279 (from UniProt W7XFY1): “binds”.

For the molecule TTHERM_01213910 (from UniProt Q24G74), the binding entry is “binds”. The same measure for B1: “binds”.
